These are yes or no findings as the source states them, for the method shown. Binding seen in cells or lysates may run through a third protein. Binding calls can cover weak binding; strength is not graded here. Tags and fused reporters may be left off the sequences shown.
Target: G533A COX-2, catalytically impaired mutant of human COX-2 (human)
Assay: co-IP; COX-2 immunoprecipitated from lysates (RIPA/SDS buffer) of HEK 293 cells transfected with mock, COX-2 or G533A COX-2; blots probed for COX-2 and endogenous EP1; cells treated for 15 min with vehicle (ethanol), arachidonic acid (2.5, 10 or 50 uM) or the EP1 agonist 17E2 (1 uM)

binding: binds
B1: prostaglandin E2 receptor EP1, endogenous in HEK 293 cells (receptor, UniProt P34995 1-402)
chain: MSPCGPLNLSLAGEATTCAAPWVPNTSAVPPSGASPALPIFSMTLGAVSNLLALALLAQAAGRLRRRRSAATFLLFVASLLATDLAGHVIPGALVLRLYTAGRAPAGGACHFLGGCMVFFGLCPLLLGCGMAVERCVGVTRPLLHAARVSVARARLALAAVAAVALAVALLPLARVGRYELQYPGTWCFIGLGPPGGWRQALLAGLFASLGLVALLAALVCNTLSGLALLRARWRRRSRRPPPASGPDSRRRWGAHGPRSASASSASSIASASTFFGGSRSSGSARRARAHDVEMVGQLVGIMVVSCICWSPMLVLVALAVGGWSSTSLQRPLFLAVRLASWNQILDPWVYILLRQAVLRQLLRLLPPRAGAKGGPAGLGLTPSAWEASSLRSSRHSGLSHF

Reference: paper PMC3948724
